A: 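Methionyl-tRNA synthetase (putative), Leishmania donovani (UniProt E9BF75). Primary screen of methionyl-tRNA synthetase; the read-out is not stated. The test concentration is not given. Values are per cent inhibition. Of about 68,000 compounds tested this way, about 24 (0.035%) reached 50% or more in at least one test.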
B: 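Assay on Mycobacterium tuberculosis, filed only as a heat shock assay from Cornell; the read-out is not stated. The concentration is filed as 10 mM, unlikely as a test dose, so the dose is not known. Direction is inferred from retests: higher values go with stronger inhibition. Size under these conditions: about 69,000 compounds, about 930 of them at 50% or above in at least one test.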

Sequences of proteins named here, by UniProt entry; tags and fusion partners are left off.
UniProt E9BF75, entry or part of it: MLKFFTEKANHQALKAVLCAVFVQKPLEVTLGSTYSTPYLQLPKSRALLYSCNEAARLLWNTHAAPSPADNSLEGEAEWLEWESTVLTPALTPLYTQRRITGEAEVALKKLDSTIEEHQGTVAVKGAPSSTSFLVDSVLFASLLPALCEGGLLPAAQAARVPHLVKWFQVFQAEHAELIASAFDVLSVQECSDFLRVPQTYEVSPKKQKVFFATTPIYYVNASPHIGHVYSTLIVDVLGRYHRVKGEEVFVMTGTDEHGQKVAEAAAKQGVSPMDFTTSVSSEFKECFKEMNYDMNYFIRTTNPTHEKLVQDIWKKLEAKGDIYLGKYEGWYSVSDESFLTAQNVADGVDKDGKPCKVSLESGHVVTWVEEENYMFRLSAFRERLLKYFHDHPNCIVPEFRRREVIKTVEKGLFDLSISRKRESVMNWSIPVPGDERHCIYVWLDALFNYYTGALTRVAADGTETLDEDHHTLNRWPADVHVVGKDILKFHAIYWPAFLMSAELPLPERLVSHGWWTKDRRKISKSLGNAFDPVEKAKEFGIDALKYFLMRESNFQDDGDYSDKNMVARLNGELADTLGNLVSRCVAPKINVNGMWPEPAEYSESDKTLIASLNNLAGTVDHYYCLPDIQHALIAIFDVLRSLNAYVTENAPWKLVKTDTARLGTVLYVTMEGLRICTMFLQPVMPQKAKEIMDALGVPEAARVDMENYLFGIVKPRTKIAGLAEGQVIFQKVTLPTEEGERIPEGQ

Results are percentages, as filed.
How 0% and 100% were set is not recorded. Most values in the screen are low, and negative values occur.
Compounds were drawn at random from those tested, without regard to their results.

* CN(C)c1nc2c(c(N3CCC4(CC3)CNC(=O)C4)n1)CCCC2 : A: 7.163%; B: 10.85%
* Cc1nnc([C@H]2C[C@H]3CN(C(=O)Cc4ccc(F)cc4)CC[C@@H]3O2)o1 : A: 18.49%
* Cn1ccc(CN2CCOCC23CCNCC3)n1 : A: 12.2%
* Cc1csc(CNCC(C)c2nc3ccccc3o2)n1 (stereo not drawn) : A: 1.344%; B: -30.19%
* Cc1nc(C)n(CC2CCCN2Cc2nc(-c3ccccn3)no2)n1 (stereo not drawn) : A: 6.011%; B: 13.92%
* Cc1ncc(CNC2CCc3nc(C(C)C)nn3C2)s1 (stereo not drawn) : A: 12.96%; B: 5.025%
* COCCCN(CCOC)C(=O)Nc1ccccc1Br : A: 7.746%; B: -9.881%
* O=C(O)C(F)(F)F.[H][C@@]12CCN(c3ncccn3)C[C@]1([H])[C@H](C(=O)NC(C)C)CCO2 : B: -26.86%
* Cc1nc(N)cc(C2CN(C(=O)c3ccn(C)n3)CCO2)n1 (stereo not drawn) : A: 18.84%; B: -5.99%
* CC1c2ncc(COc3cccnc3)n2CCN1C(=O)Cc1ccco1.O=C(O)C(F)(F)F (stereo not drawn) : B: 4.496%
* O=c1[nH]c(-c2ccc(Cl)cc2)nc2c1CCNC2 : A: 6.4%; B: -16.53%
* O=C(O)C(F)(F)F.[H][C@@]12CN(Cc3cnn(C)c3)CCO[C@]1([H])CN(S(=O)(=O)CC)C2 : B: -3.344%
* O=C(O)C(F)(F)F.c1cnc(N2CCOCC3(CCCN(Cc4cc[nH]n4)C3)C2)nc1 (stereo not drawn) : B: -14.26%
* CCN(Cc1cccnc1)CC1CCCO1 (stereo not drawn) : A: 9.36%; B: -42.47%
* CN(C)[C@H]1CN(C(=O)CCc2cccc(F)c2)C[C@@H]1C1CC1 : A: 5.115%; B: -12.57%
* Cn1cc(CN2CC[C@H](O)[C@@H](n3ccc(=O)[nH]c3=O)CC2)cn1 : A: 8.414%; B: -14.36%
* COc1ccc(C(=O)N2CCCCC2c2nccs2)c(OC)c1 (stereo not drawn) : A: 13.19%; B: 6.549%
* CC(C)CNC(=O)c1ccc(NC(=O)NC(C)c2ccccn2)cc1 (stereo not drawn) : A: 11.18%; B: -13.67%
* c1cncc(COCc2nnn3c2CN(Cc2ccsc2)CC3)c1 : A: 17.77%
* Cc1cc(C2CCC2)nc(N2CCC3(CCNC(=O)CC3)CC2)n1 : A: 11.55%; B: 9.358%
* O=C(O)C(F)(F)F.O=C(O)C(F)(F)F.O=S1(=O)c2ccccc2C2(CCN(Cc3cccnc3)C2)N1CC1CC1 (stereo not drawn) : B: 4.499%
* CCN(CC)Cc1ccc(C(=O)NC2CCc3cc(F)ccc32)o1 (stereo not drawn) : A: 19.51%; B: 24.92%

For reference, 3 entries once more:

| structure | A | B |
|---|---|---|
| `Cc1nc(N)cc(C2CN(C(=O)c3ccn(C)n3)CCO2)n1` (stereo not drawn) | 18.84% | -5.99% |
| `O=c1[nH]c(-c2ccc(Cl)cc2)nc2c1CCNC2` | 6.4% | -16.53% |
| `COc1ccc(C(=O)N2CCCCC2c2nccs2)c(OC)c1` (stereo not drawn) | 13.19% | 6.549% |

Source: ChEMBL document CHEMBL3988442, “University of Dundee, Small-Polar-MMV Screening Library” (2021).